Reference: publication PMC6363986
Results are given in words; binding and its absence hold for the method and conditions named. For part of these data: Binding seen in cells or lysates may run through a third protein. Some results given as binding are weak or reduced against the parent protein; the word gives no strength. Values belong to the substance of their own block, whether it stands above or below them.

The chains behind the UniProt entries cited, without tags or fusion partners. Where a name states a change or a piece, a line headed by the entry shows the natural chain unless it says otherwise.
UniProt P42736: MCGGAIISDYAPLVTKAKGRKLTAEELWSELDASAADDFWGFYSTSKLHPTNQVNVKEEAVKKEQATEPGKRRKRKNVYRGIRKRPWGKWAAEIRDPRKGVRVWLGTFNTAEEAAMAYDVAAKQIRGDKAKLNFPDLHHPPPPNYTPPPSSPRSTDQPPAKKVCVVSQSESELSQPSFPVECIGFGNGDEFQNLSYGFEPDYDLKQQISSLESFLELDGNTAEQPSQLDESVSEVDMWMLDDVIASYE
UniProt Q9LND1: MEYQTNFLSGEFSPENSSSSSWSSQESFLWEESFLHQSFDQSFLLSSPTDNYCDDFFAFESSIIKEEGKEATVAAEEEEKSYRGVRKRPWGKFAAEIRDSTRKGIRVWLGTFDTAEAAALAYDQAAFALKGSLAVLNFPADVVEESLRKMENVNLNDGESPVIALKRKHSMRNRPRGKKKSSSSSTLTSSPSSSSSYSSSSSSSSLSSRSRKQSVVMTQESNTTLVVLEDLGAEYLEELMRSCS

Legend:
[1] = molecular target: full-length RAP2.3 fused with GAL4 BD (Arabidopsis thaliana) (UniProt P42736); assay: two-hybrid; yeast two-hybrid; ORA59Δ1-60 fused with GAL4 AD, RAP2.3 with GAL4 BD; selective media SD/-AHLT and X-α-Gal
[2] = molecular target: RAP2.3^CE (RAP2.3 fused with YFP^CE) (Arabidopsis thaliana) (UniProt P42736); assay: split reporter; BiFC; YFP^NE and YFP^CE fusions expressed in Arabidopsis protoplasts; YFP fluorescence under a confocal microscope
[3] = molecular target: ORA59-GST (Arabidopsis thaliana) (UniProt Q9LND1); assay: pull-down; in vitro GST pull-down; GST or ORA59-GST incubated with RAP2.3-His, precipitated with glutathione sepharose 4B beads; immunoblotting with anti-GST and anti-His

- binding [1]: binds
Substance: ORA59 with N-terminal 60 amino acids deleted (ORA59Δ1-60), fused with GAL4 AD (from UniProt Q9LND1 61-244) (domain or fragment)

- binding [2]: binds
Substance: ORA59^NE (ORA59 fused with YFP^NE) (from UniProt Q9LND1 1-244)

- binding [3]: binds
Substance: RAP2.3-His (from UniProt P42736 1-248)
